Laboratory results as given in doi:10.1101/2023.04.14.536856.
Where two headings read alike, the source gives them in different places. No constants are given. Whether binding was seen depends on the method and setting. Binding seen in cells or lysates may run through a third protein. Some results given as binding are weak or reduced against the parent protein; the word gives no strength. Tags and fused reporters may be left off the sequences shown.

The chains behind the UniProt entries cited, without tags or fusion partners.
UniProt Q96524: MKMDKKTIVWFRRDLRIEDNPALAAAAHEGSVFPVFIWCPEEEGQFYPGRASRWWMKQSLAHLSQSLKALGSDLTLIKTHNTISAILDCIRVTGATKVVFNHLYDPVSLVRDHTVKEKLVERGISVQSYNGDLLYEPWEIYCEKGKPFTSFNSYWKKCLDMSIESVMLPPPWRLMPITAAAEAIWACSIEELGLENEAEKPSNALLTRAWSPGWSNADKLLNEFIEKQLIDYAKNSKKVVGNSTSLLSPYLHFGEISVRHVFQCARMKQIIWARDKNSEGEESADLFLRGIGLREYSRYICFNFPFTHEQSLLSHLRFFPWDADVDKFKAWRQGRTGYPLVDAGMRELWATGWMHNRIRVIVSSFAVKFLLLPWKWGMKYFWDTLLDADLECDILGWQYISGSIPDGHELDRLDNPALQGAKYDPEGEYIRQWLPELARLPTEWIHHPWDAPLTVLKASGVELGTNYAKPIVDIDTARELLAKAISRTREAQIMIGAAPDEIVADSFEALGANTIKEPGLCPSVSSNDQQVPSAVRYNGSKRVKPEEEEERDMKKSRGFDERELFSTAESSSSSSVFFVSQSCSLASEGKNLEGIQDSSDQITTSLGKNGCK

Assays:
GFP-NF-YC7 (Arabidopsis) [1] = biological target: T1, GFP-NF-YC7 (Arabidopsis) (UniProt Q9FGP8); assay: co-IP
T1 sequence: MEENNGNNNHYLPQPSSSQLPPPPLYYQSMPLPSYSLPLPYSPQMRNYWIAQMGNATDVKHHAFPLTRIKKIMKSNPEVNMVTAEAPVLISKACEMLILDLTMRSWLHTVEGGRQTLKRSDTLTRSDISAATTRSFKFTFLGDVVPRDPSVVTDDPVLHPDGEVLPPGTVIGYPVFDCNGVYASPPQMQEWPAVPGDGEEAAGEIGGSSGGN

GFP-NF-YC5 (Arabidopsis) [2] = biological target: T2, GFP-NF-YC5 (Arabidopsis) (UniProt Q9FGP6); assay: co-IP
T2 sequence: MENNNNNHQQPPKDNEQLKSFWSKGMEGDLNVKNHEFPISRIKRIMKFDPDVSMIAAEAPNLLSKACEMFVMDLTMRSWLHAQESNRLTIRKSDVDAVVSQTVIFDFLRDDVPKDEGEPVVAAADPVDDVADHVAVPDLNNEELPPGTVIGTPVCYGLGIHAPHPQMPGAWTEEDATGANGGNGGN

GFP-NF-YC8 (Arabidopsis) [3] = biological target: T3, GFP-NF-YC8 (Arabidopsis) (UniProt Q4PSE2); assay: co-IP
T3 sequence: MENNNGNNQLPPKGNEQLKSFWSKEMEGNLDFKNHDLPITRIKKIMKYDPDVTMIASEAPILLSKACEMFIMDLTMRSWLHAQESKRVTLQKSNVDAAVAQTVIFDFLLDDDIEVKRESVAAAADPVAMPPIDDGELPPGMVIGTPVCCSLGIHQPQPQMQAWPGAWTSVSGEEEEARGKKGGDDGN

[4] = biological target: T4, FGFP-NF-YC8 (Arabidopsis) (UniProt Q4PSE2); assay: co-IP
T4 sequence: T3 sequence

[5] = biological target: T5, FGFP-NF-YC5 (Arabidopsis) (UniProt Q9FGP6); assay: co-IP
T5 sequence: T2 sequence

[6] = biological target: T6, FGFP-NF-YC7 (Arabidopsis) (UniProt Q9FGP8); assay: co-IP
T6 sequence: T1 sequence

[7] = biological target: T7, NF-YC8-nLUC (Arabidopsis) (UniProt Q4PSE2); assay: split reporter
T7 sequence: T3 sequence

[8] = biological target: T8, NF-YC5-nLUC (Arabidopsis) (UniProt Q9FGP6); assay: split reporter
T8 sequence: T2 sequence

[9] = biological target: T9, NF-YC7-nLUC (Arabidopsis) (UniProt Q9FGP8); assay: split reporter
T9 sequence: T1 sequence

GFP-NF-YC7 (Arabidopsis) [10] = biological target: T1, GFP-NF-YC7 (Arabidopsis); assay: co-IP; remark: listed apart in the source
GFP-NF-YC5 (Arabidopsis) [11] = biological target: T2, GFP-NF-YC5 (Arabidopsis); assay: co-IP; remark: listed apart in the source
GFP-NF-YC8 (Arabidopsis) [12] = biological target: T3, GFP-NF-YC8 (Arabidopsis); assay: co-IP; remark: listed apart in the source

Measured: binding

Myc-CRY2 (expressed in HEK293T cells) (from UniProt Q96524 1-612)
binds: GFP-NF-YC7 (Arabidopsis) [1] | GFP-NF-YC5 (Arabidopsis) [2] | GFP-NF-YC8 (Arabidopsis) [3]

Myc-CRY2 (overexpressed in Arabidopsis) (from UniProt Q96524 1-612)
binds: [4] | [5] | [6]

B1: cLUC-PIF5 (protein, UniProt Q84LH8 1-444)
chain: MEQVFADWNFEDNFHMSTNKRSIRPEDELVELLWRDGQVVLQSQARREPSVQVQTHKQETLRKPNNIFLDNQETVQKPNYAALDDQETVSWIQYPPDDVIDPFESEFSSHFFSSIDHLGGPEKPRTIEETVKHEAQAMAPPKFRSSVITVGPSHCGSNQSTNIHQATTLPVSMSDRSKNVEERLDTSSGGSSGCSYGRNNKETVSGTSVTIDRKRKHVMDADQESVSQSDIGLTSTDDQTMGNKSSQRSGSTRRSRAAEVHNLSERRRRDRINERMKALQELIPHCSRTDKASILDEAIDYLKSLQMQLQVMWMGSGMAAAAAAAASPMMFPGVQSSPYINQMAMQSQMQLSQFPVMNRSAPQNHPGLVCQNPVQLQLQAQNQILSEQLARYMGGIPQMPPAGNQMQTVQQQPADMLGFGSPAGPQSQLSAPATTDSLHMGKIG
binds: [7] | [8] | [9]

B2: Flag-PIF5 (expressed in HEK293T cells) (protein, UniProt Q84LH8 1-444)
chain: B1 chain
binds: GFP-NF-YC7 (Arabidopsis) [10] | GFP-NF-YC5 (Arabidopsis) [11] | GFP-NF-YC8 (Arabidopsis) [12]
